Laboratory results reported in patent US5389687A, “Ring-substituted 2-amino-1,2,3,4-tetra-hydronaphthalenes” (Eli Lilly and Company, priority 1991, dated 1995).
At least one structure is not confirmed: it was looked up by name or label, or the drawing left a doubt.

Tested on: conscious spontaneous hypertensive rats (SHR)
Experiment: Effect on heart rate after i.v. administration to conscious SHR
Format: in vivo
Details: 15 min. after treatment
Experimental: The compounds of this invention are also effective in reducing blood pressure. The blood pressure lowering effect of the compounds of this invention was determined in conscious spontaneous hypertensive rats (SHR; 325-425 g). The rats were anesthetized with halothane (2% in nitrous oxide and oxygen) and were implanted with femoral arterial and venous catheters. The tips of arterial and venous catheters-were positioned in the abdominal aorta below the renal arteries and lower abdominal vena cava, respectively. The catheters were routed subcutaneously to an exit point at the base of the skull and then through a small leather harness fastened around the forequarters of each animal. The animals were allowed a 3- to 4-day recovery period after surgery. On the day before an experiment, each rat was conditioned to the experimental surroundings for 6 hours. […] Mean arterial blood pressure was measured via a Statham strain gauge transducer (P23DB, Statham Instruments, Oxnard, Calif.) and recorded on a multichannel oscillograph (Beckman Model R611, Beckman Instruments, Palo Alto, Calif.). […] Following a control blood pressure measurement, rats were dosed with the compound or vehicle i.v., and pressure was monitored at various time intervals thereafter.
^1 Standard protocol recorded the blood pressure and heart rate […]

## CCCN(C)C1CCc2cccc(Cl)c2C1 (stereo not shown) [Example 15, 2-Methylpropylamino-8-chloro-1,2,3,4-tetrahydronaphthalene]
  Heart Rate ED15: non-linear heart rate
